Assay results from ChEMBL document CHEMBL4296182, “CO-ADD screening of NIH NCI Diversity Set V”.
The list shows a part of the results. Entries with a potency or affinity are not part of this list.

test system: Pseudomonas aeruginosa; conditions: Concentration 20 uM; ASSAY_TEST Inhibition of Bacterial Growth; detection method Absorption (OD600); MEDIA CAMHB; plate type 384well; NBS; CORNING #3640; time 18 hr

| Compound | Inhibition |
| --- | --- |
| CN1C(=O)c2ccccc2Cc2c(NCc3ccccc3)ncnc21 | 22.17% |
| O=C(Nc1nnc(C(F)(F)F)s1)c1c(F)cccc1F | 18.28% |
| Cc1c(O)ccc2c(O)c(NC(=O)c3ccc4c(c3)CCC(C)(C)O4)c(=O)oc12 [CYCLONOVOBIOCIC ACID] | 11.99% |
| COC(=O)c1cc(C)c(C)cc1NC1OC(CO)C(O)C1O (stereo unspecified) | -6.55% |
| COC(=O)C1=C(C)NC(C)=C(C(=O)OC)C(N2C(=O)CCC2=O)C1 (stereo unspecified) | 19.58% |
| CCCOc1ccc(-c2nc(-c3ccc(N)cc3)cs2)cc1 | 15.99% |
| Cc1nc(N)nc(Cl)c1CCC1OCCO1 | 10.13% |
| CCOC(=O)c1[nH]c(CO)c(C(=O)OCC)c1C | 4.18% |
| CC(C)(C)C(=O)Nc1ccc(NC(=O)C(C)(C)C)cc1 | 3.9% |
| C/C(=N\O)[C@H]1CC[C@H]2[C@@H]3CC[C@@H]4C/C(=N/O)CC[C@]4(C)[C@H]3[C@@](C)(O)C[C@]12C | 28.52% |
| COc1ccc2c(C)cc(C)nc2n1 | 0.15% |
| O=C(/C=C\c1ccc(O)c(O)c1)OC1C(O)CC(OC(=O)/C=C/c2ccc(O)c(O)c2)(C(=O)O)CC1O (stereo unspecified) | 14.22% |
| Nc1ncnc2c1ncn2C=C=CCO | -5.34% |
| C=CCN=C(NC#N)SC | -7.26% |
| Cl.O=C(O)c1ccc(NCc2nc3ccccc3[nH]2)cc1 | -13.23% |
| CCCCCn1cnc2c(S)nc(N)nc21 | 16.96% |
| Cc1ccc(S(=O)(=O)NNC(=O)C23CCC(CC2)C3)cc1 | 31.05% |
| Cc1nc(Nc2ccc(F)cc2)nc(Nc2ccc(F)cc2)c1[N+](=O)[O-] | 25.2% |
| Cc1cccc(C)c1NC(=O)NCc1ccco1 | 3.33% |
| C1CCC(NC2=NCCO2)CC1 | 11.37% |
| CN(C)c1ccc(/C=C2/C=C(c3ccc4c(c3)CCCC4)OC2=O)cc1 | 15.17% |
| CC(C)N(Cc1ccccc1)S(=O)(=O)c1nc(C(C)(C)C)n[nH]1 | 18.9% |
| CCN1CCCCC(=N\O)/C(=N/O)CCCC1 | 19.01% |

| Compound | Inhibition |
| --- | --- |
| Nc1ccccc1-n1nc2ccc3ccccc3c2n1 | 18.19% |
| Cn1ncc2c(Nc3ccc(Br)cc3)nc(Nc3ccc(Br)cc3)nc21 | 22.59% |
| CN1CCN(C(=O)Nc2ccc([N+](=O)[O-])cc2)CC1 | 6.49% |
| O=C(c1ccccc1)c1ccc(Sc2ccc([N+](=O)[O-])cc2)cc1 | 17.7% |
| Clc1ccc(-c2[nH]nc3c2Cc2ccccc2-3)cc1Cl | -5.03% |
| Cn1ncc2c(Sc3ccc(Cl)cc3)ncnc21 | -1.88% |
| CCC(=Cc1ccc(CC)cn1)CC | 1.5% |
| Nc1ccccc1-c1nc2cnccc2[nH]1 | 12.68% |
| Cc1ccc(NC(=O)N2CCCCC2)cc1[N+](=O)[O-] | 6.69% |
| CCOC(=O)Nc1c(Cl)n(C)c(=O)n(C)c1=O | -14.01% |
| CC1CCCC(CC(=O)O)(CC(=O)O)C1 (stereo unspecified) | -15.71% |
| CS/C(=C\c1ccc(C(=O)c2ccc(C)cc2)n1C)[S+](C)[O-] (stereo unspecified) | 23.19% |
| O=[N+]([O-])c1ccc2c3ccccc3[s+]([O-])c2c1 (stereo unspecified) | 8.87% |
| c1ccc2c(c1)Nc1cc3ccccc3cc1S2 | 12.44% |
| CC(C)Oc1ccc(C(=O)O)cc1 | 9.81% |
| CC(=O)Oc1ccc(C(c2ccc(OC(C)=O)cc2)c2ccccn2)cc1 [BISACODYL] | 22.56% |
| COc1cc(O)c(C(=O)/C=C/c2ccccc2)c(OC)c1 [FLAVOKAWAIN B] | 10.96% |
| CN1C=C/C(=C/[N+](=O)[O-])N(C)C1=O | 4.48% |
| O=C(O)c1cc2cc(OCc3ccccc3)ccc2[nH]1 | 2.28% |
| NC(=O)Nc1ccc(Nc2ccccc2)cc1 | 4.83% |
| Nc1ccc(Nc2ccccc2)c(S(=O)(=O)O)c1 | -6.32% |
| Cc1cc2nc(-c3ccccn3)c(-c3ccccn3)nc2cc1C | 6.95% |
| CC(=O)NCC(=O)O.CN(C)CCC1c2ccc(Cl)cc2CCc2cccnc21 (stereo unspecified) [CLOSIRAMINE ACETURATE] | 27.92% |

| Compound | Inhibition |
| --- | --- |
| CCOC(=O)c1csc(-c2ccc(COC(=O)c3ccccc3)o2)n1 | 17.7% |
| Cc1ccncc1C(N)=O | 5.1% |
| NC1=NC(Nc2ccccc2)=NC(c2ccccc2)N1 (stereo unspecified) | 7.79% |
| COc1ccc(-c2cc(-c3ccccc3)c(-c3ccccc3)nn2)cc1 | 11.85% |
| Nc1cc2c3c(cccc3c1)C(=O)N(CCN1CCCC1)C2=O | 27.74% |
| Cc1ccc(S(=O)(=O)N2CC=C(N)N2)cc1 | 15.64% |
| C#CCNc1ccc(C(=O)OCC)cc1 | -3.64% |
| CCOc1ccc(NC(=O)Nc2cc(C(C)C)c(O)cc2C)cc1 | 15.57% |
| c1ccc(NCCSc2nc3ccccc3s2)cc1 | 12.09% |
| CCN(CC)c1ccc(/C=C/c2cc(-c3ccccc3)c3ccccc3n2)cc1 | 20.27% |
| c1ccc2nc(NN=C3CCCCC3)ccc2c1 | 11.83% |
| CN1CCC(=C2c3ccccc3C(O)c3ccccc32)CC1 (stereo unspecified) | 23.41% |
| Cc1cc(=O)c2c(o1)C(=O)c1occc1C2=O | -29.59% |
| Cc1ccc2c(c1)sc1nncn12 | 13.54% |
| Cc1ccc2c(c1)c1ccc3c(c1n2C)C(=O)C=CC3=O | 16.2% |
| Cc1nc2ccc(Cl)cn2c1[N+](=O)[O-] | -8.97% |
| Cn1c(=O)c2c(ncn2CCOC(=O)C(C)(C)Oc2ccc(Cl)cc2)n(C)c1=O [THEOFIBRATE] | 20.89% |
| CNC(=O)OCN1C(=O)C2CC=CCC2C1=O (stereo unspecified) | 11.73% |
| Cc1ccc(NC(=O)N2CCN(C)CC2)cc1NC(=O)N1CCN(C)CC1 | -13.82% |
| COC1OC2COC(c3ccccc3)OC2C(=O)C1NC(=O)c1ccccc1 (stereo unspecified) | 28.99% |
| Cn1c(=O)c2c(nc(OCCc3ccccc3)n2C)n(C)c1=O | 19.39% |
| COc1cc(/C=C2\CCOC2=O)cc(OC)c1OC | 15.95% |
| C1CCc2nc3c(nc2C1)CCCC3 | 19.99% |

Five entries drawn at random from those above, as already listed:

| Compound | Inhibition |
| --- | --- |
| Cc1ccc(S(=O)(=O)N2CC=C(N)N2)cc1 | 15.64% |
| CN1CCC(=C2c3ccccc3C(O)c3ccccc32)CC1 (stereo unspecified) | 23.41% |
| C#CCNc1ccc(C(=O)OCC)cc1 | -3.64% |
| COC(=O)C1=C(C)NC(C)=C(C(=O)OC)C(N2C(=O)CCC2=O)C1 (stereo unspecified) | 19.58% |
| C1CCc2nc3c(nc2C1)CCCC3 | 19.99% |

(list continues)

| Compound | Inhibition |
| --- | --- |
| O=[N+]([O-])c1ccc(Sc2ncccn2)c([N+](=O)[O-])c1 | 10.12% |
| Oc1ccnc(Nc2ccc(Cl)cc2)n1 | 19.48% |
| Brc1csc2ncccc12 | -2.37% |
| c1ccc(-c2nc3ccccc3s2)nc1 | 22.83% |
| CC1(C)OC2C(CO)OC(n3cnc4c(S)ncnc43)C2O1 (stereo unspecified) | 21.23% |
| Cc1c(O)cnc2nn(-c3ccccc3)c(=N)n12 | 8.14% |
| CN(C)Cc1c[nH]c2nccnc12 | 13.45% |
| CC(C)(C)C1=NN=C2c3ccccc3C(=O)C21 (stereo unspecified) | -21.54% |
| C=CCNC(=S)N1CCN(c2ccccc2Cl)CC1 | -17.36% |
| CCCCNc1nc(N)ncc1[N+](=O)[O-] | 15.58% |
| CC(=O)OCC1OC(COC(C)=O)(c2ccc(C)cc2)C(OC(C)=O)C1OC(C)=O (stereo unspecified) | 23.48% |
| C#CC1(N2CCCCC2)CCCCC1 | 17.52% |
| CCN(c1ccccc1)c1nc(Cl)nc2c1cnn2C | 6.67% |
| Cc1cc(=O)[nH]c(N)n1 | -2.41% |
| CNC(=O)c1nn(C)c(=O)[nH]c1=O | 26.23% |
| CC(C)COC(=O)NC1c2ccccc2Oc2ccccc21 | 6.4% |
| CCC1=C(c2ccc(OC)cc2)CCC(C(=O)O)C1C (stereo unspecified) | -11.41% |
| CCc1cccc2[nH]c3cc([N+](=O)[O-])ccc3c12 | -5.38% |
| Nc1ncnc2c1ncn2C1OC(CO)C(O)C1N (stereo unspecified) | 4.31% |
| Oc1c(Cl)cc(Cl)cc1C1Nc2ccccc2-n2cccc21 (stereo unspecified) | 12.23% |
| CCC(C)(C)c1ccc(Oc2cccc(C(=O)O)c2)cc1 | -11.05% |
| Cl/N=C1/C=CC=C/C1=N/Cl | -1.05% |
| CC(C)N(C(=O)c1cccc([N+](=O)[O-])c1)C(C)C | -6.21% |

| Compound | Inhibition |
| --- | --- |
| C[C@H](CCC(=O)O)[C@H]1CC[C@@]2(C)[C@@H]3C(=O)C[C@H]4C(C)(C)[C@@H](O)CC[C@]4(C)[C@H]3C(=O)C[C@]12C | -11.48% |
| O=C1c2ccccc2C(=O)c2c(Nc3ccc(CCO)cc3)ccc(O)c21 | 27.65% |
| CCCCNCC1CCCO1 (stereo unspecified) | 24.27% |
| Cc1nnc(Cc2ccccc2)c2[nH]nc(C)c12 | 1.1% |
| Oc1ccccc1-c1nnco1 [FENADIAZOLE] | 12.87% |
| CS(=O)(=O)O.OC(c1cc(C(F)(F)F)nc2c(Cl)cc(Cl)cc12)C1CCCCN1 (stereo unspecified) | 29.15% |
| c1ccc(-n2nnnc2-c2cccc3ccccc23)cc1 | -7.64% |
| Oc1ccc(Cc2ccccc2Cl)c(O)c1 | 12.49% |
| Oc1ccc2c(ccc3[nH]cnc32)c1 | 26.82% |
| O=C(O)c1cc(N2C(=O)C=CC2=O)cc(N2C(=O)C=CC2=O)c1 | 5.71% |
| CCOc1ccc(/C=C2\CCc3ccccc3C2=O)cc1 | -6.14% |
| Cc1csc(/N=N/c2ccc(N(C)C)cc2)[n+]1[O-] | 12.68% |
| Cc1nnsc1C(=O)NCc1c(F)cccc1Cl | -8.15% |
| CN(/N=N/c1[nH]cnc1C(=O)NN)C1CCCCC1 | -5.81% |
| NCC(=O)Nc1ccc(Cl)cc1C(=O)c1ccc[nH]1 | 8.94% |
| c1ccc2c(c1)nnn2-c1ccncc1 | -19.2% |
| CC(=O)Nc1ccc2cc3ccc(NC(C)=O)cc3nc2c1 | 10.98% |
| O=C(O)c1ccccc1C(=O)Nc1cccc([N+](=O)[O-])c1 | 0.82% |
| Nc1ccccc1Sc1cc(Cl)nnc1Cl | 14.25% |

Entries above that contain a furan ring, fused or not:

| Compound | Inhibition |
| --- | --- |
| Cc1cccc(C)c1NC(=O)NCc1ccco1 | 3.33% |
| CCOC(=O)c1csc(-c2ccc(COC(=O)c3ccccc3)o2)n1 | 17.7% |
| Cc1cc(=O)c2c(o1)C(=O)c1occc1C2=O | -29.59% |
